The text below walks through data of article PMC8901929.

Sequences of proteins named here, by UniProt entry; tags and fusion partners are left off.
UniProt Q96RU2: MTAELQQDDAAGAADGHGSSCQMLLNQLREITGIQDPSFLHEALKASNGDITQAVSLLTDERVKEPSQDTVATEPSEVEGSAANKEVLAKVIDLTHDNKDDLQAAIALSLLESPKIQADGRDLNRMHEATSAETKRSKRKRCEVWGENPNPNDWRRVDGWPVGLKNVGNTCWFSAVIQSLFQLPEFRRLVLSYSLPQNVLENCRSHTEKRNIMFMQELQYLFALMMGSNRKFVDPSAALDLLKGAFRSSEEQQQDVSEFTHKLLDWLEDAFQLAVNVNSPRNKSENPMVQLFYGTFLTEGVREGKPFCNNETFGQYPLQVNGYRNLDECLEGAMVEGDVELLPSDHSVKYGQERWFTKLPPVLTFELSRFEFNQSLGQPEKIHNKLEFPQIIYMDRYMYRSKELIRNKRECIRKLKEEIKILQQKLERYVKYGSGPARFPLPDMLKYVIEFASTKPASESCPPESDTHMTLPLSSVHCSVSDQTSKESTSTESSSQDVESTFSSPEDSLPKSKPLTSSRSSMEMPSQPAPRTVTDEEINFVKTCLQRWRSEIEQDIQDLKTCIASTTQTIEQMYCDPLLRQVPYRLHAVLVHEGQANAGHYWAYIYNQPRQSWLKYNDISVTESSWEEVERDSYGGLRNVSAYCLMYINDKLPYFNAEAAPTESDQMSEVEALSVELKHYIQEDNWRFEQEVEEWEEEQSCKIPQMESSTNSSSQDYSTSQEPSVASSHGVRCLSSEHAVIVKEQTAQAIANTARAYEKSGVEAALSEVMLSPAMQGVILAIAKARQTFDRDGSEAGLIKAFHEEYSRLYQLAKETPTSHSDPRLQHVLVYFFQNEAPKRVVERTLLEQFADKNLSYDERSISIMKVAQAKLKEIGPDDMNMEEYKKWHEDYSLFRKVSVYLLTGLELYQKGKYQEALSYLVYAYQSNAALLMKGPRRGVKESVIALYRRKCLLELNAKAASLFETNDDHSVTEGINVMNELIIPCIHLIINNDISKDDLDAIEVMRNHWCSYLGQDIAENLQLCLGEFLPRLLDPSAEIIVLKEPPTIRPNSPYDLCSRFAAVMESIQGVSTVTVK
UniProt Q13535: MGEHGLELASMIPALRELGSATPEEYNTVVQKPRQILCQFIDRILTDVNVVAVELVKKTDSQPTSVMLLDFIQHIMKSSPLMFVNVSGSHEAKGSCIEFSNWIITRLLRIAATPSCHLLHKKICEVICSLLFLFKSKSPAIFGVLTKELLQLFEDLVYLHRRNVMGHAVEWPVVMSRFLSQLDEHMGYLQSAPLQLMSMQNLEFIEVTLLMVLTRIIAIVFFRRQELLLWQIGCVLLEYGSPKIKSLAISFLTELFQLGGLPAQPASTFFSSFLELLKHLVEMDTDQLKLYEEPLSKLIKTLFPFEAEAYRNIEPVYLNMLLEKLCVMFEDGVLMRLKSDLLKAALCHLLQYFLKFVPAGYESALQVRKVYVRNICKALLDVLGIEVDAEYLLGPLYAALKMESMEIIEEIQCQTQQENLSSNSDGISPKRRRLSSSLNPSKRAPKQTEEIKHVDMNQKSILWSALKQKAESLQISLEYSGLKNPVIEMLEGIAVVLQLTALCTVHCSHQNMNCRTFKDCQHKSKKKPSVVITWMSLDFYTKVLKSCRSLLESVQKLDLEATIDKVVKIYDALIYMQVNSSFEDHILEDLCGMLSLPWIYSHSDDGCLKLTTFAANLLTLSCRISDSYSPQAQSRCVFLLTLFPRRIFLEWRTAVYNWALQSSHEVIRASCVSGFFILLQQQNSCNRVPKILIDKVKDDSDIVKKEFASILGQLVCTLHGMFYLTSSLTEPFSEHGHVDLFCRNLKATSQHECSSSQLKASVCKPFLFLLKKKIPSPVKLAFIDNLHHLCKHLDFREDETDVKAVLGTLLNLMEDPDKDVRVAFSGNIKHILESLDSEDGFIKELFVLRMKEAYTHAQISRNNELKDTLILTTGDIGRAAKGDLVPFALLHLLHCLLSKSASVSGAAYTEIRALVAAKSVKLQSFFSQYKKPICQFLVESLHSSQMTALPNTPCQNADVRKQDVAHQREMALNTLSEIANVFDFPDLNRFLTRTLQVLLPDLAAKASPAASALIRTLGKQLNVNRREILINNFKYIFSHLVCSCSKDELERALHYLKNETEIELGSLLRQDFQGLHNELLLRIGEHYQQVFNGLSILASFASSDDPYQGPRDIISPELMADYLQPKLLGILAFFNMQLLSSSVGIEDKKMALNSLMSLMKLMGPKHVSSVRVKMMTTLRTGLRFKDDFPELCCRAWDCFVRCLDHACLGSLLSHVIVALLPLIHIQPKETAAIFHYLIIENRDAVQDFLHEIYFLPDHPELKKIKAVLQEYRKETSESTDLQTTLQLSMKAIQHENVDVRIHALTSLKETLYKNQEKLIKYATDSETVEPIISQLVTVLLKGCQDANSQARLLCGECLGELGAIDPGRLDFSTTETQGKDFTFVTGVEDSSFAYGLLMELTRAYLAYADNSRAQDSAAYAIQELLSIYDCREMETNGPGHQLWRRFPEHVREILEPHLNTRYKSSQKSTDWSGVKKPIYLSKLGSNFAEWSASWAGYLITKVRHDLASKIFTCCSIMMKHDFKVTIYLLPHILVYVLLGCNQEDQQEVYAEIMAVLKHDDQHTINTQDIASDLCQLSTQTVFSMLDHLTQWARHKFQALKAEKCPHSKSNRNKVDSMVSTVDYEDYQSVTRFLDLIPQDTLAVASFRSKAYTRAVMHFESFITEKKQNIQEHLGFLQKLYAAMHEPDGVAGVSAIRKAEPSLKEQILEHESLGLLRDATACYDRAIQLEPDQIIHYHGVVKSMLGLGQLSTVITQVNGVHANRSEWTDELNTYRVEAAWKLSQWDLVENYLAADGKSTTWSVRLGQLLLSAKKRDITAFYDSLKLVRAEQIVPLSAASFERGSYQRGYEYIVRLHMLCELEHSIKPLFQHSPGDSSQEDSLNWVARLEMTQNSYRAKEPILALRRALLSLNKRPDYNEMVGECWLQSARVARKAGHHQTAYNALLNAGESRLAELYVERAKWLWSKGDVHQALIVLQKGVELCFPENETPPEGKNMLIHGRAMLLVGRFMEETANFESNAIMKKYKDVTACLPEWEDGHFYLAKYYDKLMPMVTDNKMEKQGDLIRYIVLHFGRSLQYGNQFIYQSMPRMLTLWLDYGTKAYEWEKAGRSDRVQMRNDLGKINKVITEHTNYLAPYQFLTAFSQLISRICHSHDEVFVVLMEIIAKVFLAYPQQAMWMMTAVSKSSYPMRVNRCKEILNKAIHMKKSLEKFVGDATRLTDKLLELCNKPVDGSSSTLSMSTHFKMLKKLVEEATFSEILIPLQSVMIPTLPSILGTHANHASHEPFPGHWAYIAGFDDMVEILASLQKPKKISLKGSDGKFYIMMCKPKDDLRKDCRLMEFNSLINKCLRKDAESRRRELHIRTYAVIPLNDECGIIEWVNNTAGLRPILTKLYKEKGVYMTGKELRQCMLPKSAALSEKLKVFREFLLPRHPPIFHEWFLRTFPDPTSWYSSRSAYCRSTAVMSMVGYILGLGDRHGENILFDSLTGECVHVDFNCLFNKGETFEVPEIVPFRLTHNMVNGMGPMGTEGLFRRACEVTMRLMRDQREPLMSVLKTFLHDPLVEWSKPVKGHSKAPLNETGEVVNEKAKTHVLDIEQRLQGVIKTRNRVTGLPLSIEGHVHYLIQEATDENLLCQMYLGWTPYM

The assay addresses USP28 (human (endogenous in A431)) (UniProt Q96RU2). Briefly: co-IP; endogenous proteins from A431 cells treated with DMF or 5 µM CPPD for 6 h; RIPA lysate (sonicated), 500 µg lysate, 1 µg antibody (phospho-ATM ser1981, phospho-ATR ser428 or USP28), Protein A/G magnetic beads; rabbit IgG as control; immunoblot.

These are yes or no findings as the source states them, for the method shown. In cells and extracts the contact can be indirect. Some entries that bind do so weakly or less than the wild type.

With “phospho-ATR (ser428) (from UniProt Q13535 1-2644) (enzyme)”, the binding entry is recorded as “binds”.
